The results in this text go back to PMC10464048.

Amino acid sequences for entries named in this document (tags omitted).
UniProt P62993: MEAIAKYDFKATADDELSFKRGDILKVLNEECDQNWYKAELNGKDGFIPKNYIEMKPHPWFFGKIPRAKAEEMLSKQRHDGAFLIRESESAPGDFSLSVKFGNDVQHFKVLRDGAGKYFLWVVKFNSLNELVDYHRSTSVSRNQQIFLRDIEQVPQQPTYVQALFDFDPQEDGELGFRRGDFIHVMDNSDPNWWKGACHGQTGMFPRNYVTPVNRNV
UniProt P17931: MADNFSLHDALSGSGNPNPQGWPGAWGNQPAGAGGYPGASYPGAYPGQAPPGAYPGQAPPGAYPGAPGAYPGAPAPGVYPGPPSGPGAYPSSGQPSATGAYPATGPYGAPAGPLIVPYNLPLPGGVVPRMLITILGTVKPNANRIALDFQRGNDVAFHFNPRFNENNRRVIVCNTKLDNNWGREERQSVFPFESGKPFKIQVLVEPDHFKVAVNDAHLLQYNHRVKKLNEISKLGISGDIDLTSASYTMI

These are yes or no findings as the source states them, for the method shown. In cells and extracts the contact can be indirect. These calls come from enrichment with a bait or labelling near it, and not all partners need be listed.

The chains are these.
T1: RING Finger Protein 173 (UniProt Q86UD3)
T1 sequence: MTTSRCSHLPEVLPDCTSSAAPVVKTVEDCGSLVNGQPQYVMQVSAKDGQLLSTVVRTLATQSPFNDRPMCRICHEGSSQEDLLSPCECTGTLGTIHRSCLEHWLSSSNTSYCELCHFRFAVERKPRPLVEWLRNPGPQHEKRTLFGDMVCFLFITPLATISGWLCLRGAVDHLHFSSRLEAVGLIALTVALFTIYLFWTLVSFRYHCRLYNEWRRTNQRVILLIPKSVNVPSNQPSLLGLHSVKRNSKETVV

B1: SLC25A6 (protein, UniProt P12236 1-298)
chain: MTEQAISFAKDFLAGGIAAAISKTAVAPIERVKLLLQVQHASKQIAADKQYKGIVDCIVRIPKEQGVLSFWRGNLANVIRYFPTQALNFAFKDKYKQIFLGGVDKHTQFWRYFAGNLASGGAAGATSLCFVYPLDFARTRLAADVGKSGTEREFRGLGDCLVKITKSDGIRGLYQGFSVSVQGIIIYRAAYFGVYDTAKGMLPDPKNTHIVVSWMIAQTVTAVAGVVSYPFDTVRRRMMMQSGRKGADIMYTGTVDCWRKIFRDEGGKAFFKGAWSNVLRGMGGAFVLVLYDELKKVI

The test concerns the target T1, RING Finger Protein 173. The test can be described thus: affinity purification with mass spectrometry; IP from cell lysate with FLAG antibody against IgG control, protein A agarose beads, silver staining, mass spectrometry of gel bands.
For “Growth Factor Receptor Bound Protein 2 (from UniProt P62993 1-217)”, the binding result is “binds”.

LGALS3 (from UniProt P17931 1-250): the binding result is recorded as “binds”. For B1, the binding result is on record as “binds”.
